Results deposited as PubChem BioAssay AID504808 (Drosophila RNAi Screening Center, 2011)
Aim: 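Fly genes required to hold E2F transcription in check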 (primary screen). Cell system: Drosophila S2 cells. Reagent: long dsRNA against Drosophila genes. Read-out: 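Firefly luciferase driven by E2F sites, normalised to Renilla luciferase on the same minimal promoter, measured by plate reader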. Scale: E2F firefly: higher = more E2F reporter activity; Renilla normaliser: higher = more normaliser reporter signal. Rule for the call: 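a knock-down counted as active when the firefly/Renilla E2F signal rose above 50%, a threshold chosen arbitrarily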.
The deposit covers about 21,000 reagents; this is an unselected part of those that have a named target and a result. Of all reagents, 18 (0.084%) got an active call. 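Raw counts without plate normalisation, one of two replicates; the ratio scores behind the calls were not deposited.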 Names joined by + are all predicted targets of the reagent. Not given: the amount of reagent, the time to read-out.

gene | amplicon | E2F firefly, rep 1 | Renilla normaliser, rep 1 | call
nahoda | DRSC03954 | 1.25e5 | 4155 | inactive
nahoda | DRSC04126 | 81939 | 3321 | inactive
mah | DRSC14645 | 1.05e5 | 6160 | inactive
Cpr62Bb | DRSC08404 | 1.12e5 | 5132 | inactive
ktub | DRSC04551 | 85822 | 3453 | inactive
Arc1 | DRSC06159 | 78383 | 3748 | inactive
p115 | DRSC18813 | 67625 | 4566 | inactive
tw | DRSC18537 | 1899 | 832 | inactive
Oli | DRSC02866 | 82074 | 4136 | inactive
Xe7 | DRSC12307 | 1.21e5 | 5355 | inactive
CG10948 | DRSC09806 | 1.23e5 | 6501 | inactive
Cln7 | DRSC11005 | 71117 | 3899 | inactive
CG4022 | DRSC10395 | 1.20e5 | 7075 | inactive
Cpr49Af | DRSC07202 | 94637 | 4063 | inactive
Pur-alpha | DRSC17166 | 2017 | 840 | inactive
CG9632 | DRSC16528 | 1.09e5 | 5909 | inactive
MSBP | DRSC20146 | 8319 | 644 | inactive
CG18223 | DRSC10306 | 1.25e5 | 6125 | inactive
CG11693 | DRSC14353 | 1.26e5 | 5940 | inactive
insv | DRSC00579 | 1.70e5 | 5758 | inactive
CG6195 | DRSC15989 | 1.57e5 | 7856 | inactive
Acbp4 | DRSC11023 | 1.01e5 | 3561 | inactive
Lcch3 | DRSC20257 | 8431 | 812 | inactive
CG7120 | DRSC10773 | 1.05e5 | 4734 | inactive
MFS1 | DRSC04115 | 1.02e5 | 4411 | inactive
ppk24 | DRSC15093 | 1.16e5 | 5681 | inactive
snf | DRSC18835 | 6984 | 956 | inactive
Rpn10 | DRSC11876 | 94733 | 7666 | inactive
AIMP2 | DRSC09877 | 73319 | 3736 | inactive
CAH6 | DRSC15505 | 1.17e5 | 5384 | inactive
CG44085 | DRSC02922 | 57872 | 119 | inactive
CG42376 + cin | DRSC18752 | 1810 | 988 | inactive
Ltn1 | DRSC11056 | 83545 | 3546 | inactive
Ltn1 | DRSC11058 | 1.30e5 | 6566 | inactive
CG30379 | DRSC05070 | 1.34e5 | 5979 | inactive
Polr3A | DRSC19766 | 2.46e5 | 5771 | inactive
Muc11A | DRSC19498 | 1.32e5 | 6880 | inactive
CG32243 | DRSC08105 | 1.43e5 | 4535 | inactive
T3dh + pgc | DRSC04659 | 96528 | 3278 | inactive
CG8046 | DRSC07059 | 3088 | 195 | inactive
HPS1 | DRSC06195 | 2944 | 188 | inactive
glob3 | DRSC12261 | 1.21e5 | 6188 | inactive
FMRFa | DRSC07428 | 1.64e5 | 4734 | inactive
dar1 | DRSC08049 | 1.21e5 | 4445 | inactive
dar1 | DRSC08233 | 93658 | 4223 | inactive
CenG1A | DRSC02538 | 96585 | 4314 | inactive
CenG1A | DRSC03505 | 1.02e5 | 4298 | inactive
CenG1A | DRSC03506 | 98155 | 4290 | inactive
CG33143 | DRSC04151 | 1.01e5 | 4465 | inactive
CG33143 | DRSC04454 | 1.22e5 | 4521 | inactive
CG13917 | DRSC08386 | 73295 | 3635 | inactive
CG8852 | DRSC00719 | 1.42e5 | 5263 | inactive
mthl14 | DRSC07865 | 1.28e5 | 3834 | inactive
CG8851 | DRSC00718 | 1.41e5 | 5164 | inactive
bsd | DRSC05953 | 72233 | 3896 | inactive
CG5882 | DRSC15907 | 98707 | 6019 | inactive
Osi19 | DRSC12569 | 1.25e5 | 6753 | inactive
CG13044 | DRSC09925 | 1.78e5 | 8436 | inactive
CG42544 | DRSC12451 | 69289 | 4174 | inactive
CG31342 | DRSC15349 | 77261 | 3621 | inactive
CG31342 | DRSC16246 | 1.08e5 | 5425 | inactive
cg | DRSC07650 | 69271 | 3174 | inactive
CG32085 | DRSC10138 | 1.19e5 | 6294 | inactive
CG32085 | DRSC10139 | 1.26e5 | 6309 | inactive
CG32085 | DRSC10576 | 1.09e5 | 5857 | inactive
CG5910 | DRSC11786 | 1.54e5 | 7706 | inactive
ds | DRSC00815 | 1.72e5 | 6180 | inactive
CG31229 | DRSC13309 | 83571 | 2638 | inactive
CG11629 | DRSC03695 | 1.08e5 | 4639 | inactive
Ero1L | DRSC08660 | 71340 | 3783 | inactive
CG30467 | DRSC07097 | 89562 | 4099 | inactive
FASN3 | DRSC20882 | 1.25e5 | 7180 | inactive
cyp33 + CG34194 | DRSC05666 | 1.51e5 | 7928 | inactive
CG8701 | DRSC07237 | 2707 | 218 | inactive
CG13096 | DRSC02198 | 1.27e5 | 4909 | inactive
DNaseII | DRSC16310 | 64980 | 3105 | inactive
eEF1delta | DRSC02790 | 72353 | 3277 | inactive
Cyp4d20 | DRSC08654 | 1.09e5 | 4774 | inactive
GluRIIB | DRSC03335 | 1.50e5 | 4856 | inactive
CtsF | DRSC12056 | 71516 | 3602 | inactive
CtsF | DRSC12195 | 83550 | 3911 | inactive
CtsF | DRSC12196 | 1.32e5 | 6746 | inactive
js | DRSC15004 | 1.09e5 | 6316 | inactive
larp | DRSC14728 | 1.08e5 | 5823 | inactive
larp | DRSC16984 | 1.07e5 | 7269 | inactive

A few values from the entries so far:
Result for CenG1A [DRSC03505] under “E2F firefly, rep 1”: 1.02e5
Value of MSBP [DRSC20146] in “E2F firefly, rep 1”: 8319
Under “E2F firefly, rep 1”, CG10948 [DRSC09806] is entered as 1.23e5
CG6195 [DRSC15989], Renilla normaliser, rep 1 = 7856
Under “call”, HPS1 [DRSC06195] reads inactive
Result for CG13917 [DRSC08386] under “call”: inactive
